Laboratory results: patent US20220356475
Negatives hold for the conditions tested.

Protein sequences, listed by entry. Tags and fused reporters are not part of them. Residues count along the entry.
UniProt P30530, 26-894: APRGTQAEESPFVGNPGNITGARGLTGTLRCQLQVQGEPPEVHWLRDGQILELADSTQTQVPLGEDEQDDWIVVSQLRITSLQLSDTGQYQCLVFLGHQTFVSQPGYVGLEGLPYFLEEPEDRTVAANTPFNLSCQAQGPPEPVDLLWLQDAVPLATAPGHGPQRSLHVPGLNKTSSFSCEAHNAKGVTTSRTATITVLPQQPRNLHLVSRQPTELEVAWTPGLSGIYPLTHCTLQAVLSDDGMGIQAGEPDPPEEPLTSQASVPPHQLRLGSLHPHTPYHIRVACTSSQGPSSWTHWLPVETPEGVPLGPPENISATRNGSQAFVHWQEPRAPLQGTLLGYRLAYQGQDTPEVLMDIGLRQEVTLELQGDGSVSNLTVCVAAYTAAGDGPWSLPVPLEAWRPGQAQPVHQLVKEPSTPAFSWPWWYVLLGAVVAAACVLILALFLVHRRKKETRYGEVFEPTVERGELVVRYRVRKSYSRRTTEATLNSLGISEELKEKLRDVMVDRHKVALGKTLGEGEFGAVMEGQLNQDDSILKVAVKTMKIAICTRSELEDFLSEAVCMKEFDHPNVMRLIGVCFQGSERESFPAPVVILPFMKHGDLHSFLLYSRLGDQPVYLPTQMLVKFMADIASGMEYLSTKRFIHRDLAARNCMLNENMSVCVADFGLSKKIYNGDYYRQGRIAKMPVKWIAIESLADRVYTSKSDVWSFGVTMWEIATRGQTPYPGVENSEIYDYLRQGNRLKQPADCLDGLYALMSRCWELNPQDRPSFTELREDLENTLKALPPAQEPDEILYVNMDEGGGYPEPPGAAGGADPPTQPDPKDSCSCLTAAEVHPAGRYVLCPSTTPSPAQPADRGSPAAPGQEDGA

Target: AXL receptor tyrosine kinase (UniProt P30530)
Assay: activity in cells
Settings: in one embodiment pyrimidines 2'-F and/or purines 2'-OMe, protein on the cell surface

AUGAUCAAUCGCCUCAAUUCGACAGGAGGCUCACGUACAUUCUAGAUAGCC / AGUCAGUGCAUCACAGAACUUUGUCUUU / AGGUGAAGUUCUGUUAUACACUCAGGCUGGCUAUCUAGAAUGUAC
functional effect of the aptamer (C12 alkyl linker between SEQ 1 and SEQ 2, 400 nM, miR-148b raised in AXL+ cells but not in AXL- SKBR3 cells (qRT-PCR, 48 h), indirect evidence of binding): active

GGCGCUAGAACCUUCUAAGCGAAUACAUUACCGCGUACAUUCUAGAUAGCC / AGUCAGUGCAUCACAGAACUUUGUCUUU / AGGUGAAGUUCUGUUAUACACUCAGGCUGGCUAUCUAGAAUGUAC
functional effect of the aptamer (C12 alkyl linker between SEQ 6 and SEQ 2, no change in miR-148b levels in AXL+ cells, scrambled sequence stated unable to bind and activate AXL, dose not given here): not active
